{"source": "PubChem BioAssay AID540256", "about": "(National Center for Advancing Translational Sciences (NCATS), 2011)", "note": "Out of some 300,000 compounds screened, about 3,700 (1.2%) were called active. The inconclusive results got no clear call from the source; some entries with a clear call stand among them for comparison. Calls come from the whole dose curve; tested in HEK293 cells. Potencies beside an inconclusive call are fits to weak or partial responses and may not hold up. Potency is the fitted concentration of half-maximal effect."}
{"assay": "qHTS for Inhibitors of binding or entry into cells for Lassa Virus; note: nearly all actives have a fitted effect of over 50% in size", "details": "Lassa virus pseudotype entry inhibition, cell reporter; series mostly up to 37.9 µM"}
{"molecule": "CCCCC(=O)Nc1ccc(C(=O)NNC(=O)c2cccs2)cc1", "Potency": "inconclusive: 3.55 µM [activator, partial curve]"}
{"molecule": "CCN1CCC2(CC1)N=C(c1ccc(F)cc1)C(=S)N2C(=O)c1ccc(C)cc1", "Potency": "active: 8.91 µM"}
{"molecule": "Cc1ccn2cc(-c3ccc(NC(=O)c4ccco4)cc3)nc2c1", "Potency": "inconclusive: 18.4 µM [inhibitor, single point]"}
{"molecule": "O=C(COC(=O)c1ccc([N+](=O)[O-])s1)NCc1ccc(F)cc1", "Potency": "inconclusive: 3.16 µM [inhibitor, single point]"}
{"molecule": "Cc1cccn2c(=O)c3cc(C(=O)NCc4ccco4)c(=N)n(C(C)C)c3nc12", "Potency": "inconclusive: 32.6 µM [inhibitor, single point]"}
{"molecule": "O=C(Nc1cnc2ccccc2c1)c1cccc(-n2cnnn2)c1", "Potency": "inconclusive: 29.1 µM [activator, single point]"}
{"molecule": "COc1ccc(OC)c(NC(=O)C2CCN(c3cc(-c4ccccc4)nc4ncnn34)CC2)c1", "Potency": "inactive"}
{"molecule": "COCCn1c(C)cc(C(=O)CSc2cc(C)c3ccc(OC)cc3n2)c1C", "Potency": "inconclusive: 35.5 µM [inhibitor, single point]"}
{"molecule": "Cc1nc2ccc(F)cc2cc1C(=O)NC(C)C", "Potency": "inactive"}
{"molecule": "O=C(CSc1nnc(C2CC2)n1CC1CCCO1)Nc1ccc(Cl)cc1", "note": "(stereo not given)", "Potency": "inactive"}
{"molecule": "O=C(Nc1ccc(-n2nncc2-c2ccccc2)cc1)c1cccc(F)c1", "Potency": "inconclusive: 5.62 µM [inhibitor, single point]"}
{"molecule": "Cc1cc(Cl)cc(Cl)c1OCC(=O)NCc1ccco1", "Potency": "inactive"}
{"molecule": "COc1ccc(Nc2nnc(SCc3cn4c(C)cccc4n3)s2)cc1", "Potency": "inconclusive: 7.94 µM [inhibitor, partial curve, poor fit]"}
{"molecule": "O=C(Nc1ccc2ccccc2c1[N+](=O)[O-])c1ccccc1", "Potency": "inconclusive: 17.8 µM [inhibitor, single point]"}
{"molecule": "Cc1cc(C(F)F)n2nc(C(=O)Nc3cccc(Cl)c3C)nc2n1", "Potency": "inconclusive: 35.5 µM [activator, single point]"}
{"molecule": "Cc1ccccc1OCC(=O)Nc1ccccc1C(=O)OCc1cc(=O)n2ccsc2n1", "Potency": "inconclusive: 20 µM [activator, partial curve, poor fit]"}
{"molecule": "Cc1nn(CCCC(=O)NCCc2ccc(Cl)cc2)c(=O)c2c1sc1ccccc12", "Potency": "inconclusive: 8.91 µM [inhibitor, partial curve, poor fit]"}
{"molecule": "COc1ccc(C(CNC(=O)c2ccc(NS(=O)(=O)c3ccccc3)cc2)N2CCOCC2)cc1", "note": "(stereo not given)", "Potency": "inconclusive: 35.5 µM [inhibitor, partial curve, poor fit]"}
{"molecule": "Cc1nnc(Cl)c2nn(-c3ccccc3)c(C)c12", "Potency": "inactive"}
{"molecule": "Cc1ccc(N(C(C)C(=O)Nc2ccc(S(=O)(=O)N3CCOCC3)cc2)S(C)(=O)=O)cc1C", "note": "(stereo not given)", "Potency": "inconclusive: 22.4 µM [inhibitor, single point]"}
{"molecule": "Fc1ccccc1CSc1ccc(-c2ccco2)nn1", "Potency": "inactive"}
{"molecule": "CS(=O)(=O)N1CCN(c2ccc(NC(=O)c3ccc(-c4ccc(Cl)cc4)o3)cc2)CC1", "Potency": "inconclusive: 5.8 µM [inhibitor, partial curve]"}
{"molecule": "COc1ccc2nc(N3CCC(O)CC3)c(C#N)cc2c1", "Potency": "inactive"}
{"molecule": "O=C(CN1CCN(c2ccc(F)cc2)CC1)N1CCC(Cc2ccccc2)CC1", "Potency": "inconclusive: 23.1 µM [inhibitor, single point]"}
{"molecule": "O=C(Nc1ccc(CN2CCCCC2)cc1)c1cccc(Br)c1", "Potency": "inconclusive: 10 µM [activator, partial curve, poor fit]"}
{"molecule": "Cc1ccc(-c2cc(C(=O)Nc3nccs3)c3ccccc3n2)o1", "Potency": "inconclusive: 25.9 µM [inhibitor, single point]"}
{"molecule": "COc1ccc(F)cc1S(=O)(=O)NCC(c1ccco1)S(=O)(=O)c1ccc(F)cc1", "note": "(stereo not given)", "Potency": "inactive"}
{"molecule": "COc1ccc2c(c1)c(=O)cc(C)n2CC(=O)NCc1ccco1", "Potency": "inconclusive: 25.1 µM [inhibitor, partial curve, poor fit]"}
{"molecule": "NC(=O)N/N=C(/CCCCCC/C(=N\\NC(N)=O)c1ccccc1)c1ccccc1", "Potency": "inconclusive: 11.2 µM [inhibitor, partial curve]"}
{"molecule": "CC[n+]1c(/C=C(\\C)SC)sc2ccccc21", "Potency": "inconclusive: 0.0046 µM [inhibitor, full curve, poor fit]"}
{"molecule": "O=C(NC(=S)Nc1cccc(O)c1)c1cncc(Br)c1", "Potency": "inactive"}
{"molecule": "CCOc1ccc(S(=O)(=O)N(CC(=O)O)c2ccccc2)cc1", "Potency": "inconclusive: 18.3 µM [activator, partial curve, poor fit]"}
{"molecule": "CCOC(=O)c1cccc(NC(=S)N2CCN(c3ncc4c(=O)c(C(=O)O)cn(CC)c4n3)CC2)c1", "Potency": "inactive"}
{"molecule": "N#Cc1c(NC(=O)c2ccccc2Cl)n(Cc2ccccc2)c2nc3ccccc3nc12", "Potency": "inconclusive: 22.4 µM [inhibitor, single point]"}
{"molecule": "COc1cccc(Cn2c(CNC(=O)CCc3ccccc3)nc3cccnc32)c1", "Potency": "inconclusive: 0.562 µM [inhibitor, full curve, poor fit]"}
{"molecule": "Nc1nonc1C(=O)NCCNC(=O)c1ccc(Cl)c(Cl)c1", "Potency": "inconclusive: 3.55 µM [inhibitor, partial curve, poor fit]"}
{"molecule": "COc1cccc(C(=O)NC2CCCc3ccccc32)c1", "note": "(stereo not given)", "Potency": "inactive"}
{"molecule": "Cc1nc(NC(=O)C2CC2)sc1C(=O)Nc1cccc(Cl)c1", "Potency": "inconclusive: 25.1 µM [inhibitor, single point]"}
{"molecule": "COc1cc(CN2CCc3nc(N4CCN(c5ncccn5)CC4)ncc3C2)cc(OC)c1OC", "Potency": "inconclusive: 2 µM [inhibitor, full curve]"}
{"molecule": "CC(=O)Nc1nc(COc2ccc3ccccc3c2)cs1", "Potency": "inconclusive: 6.51 µM [activator, single point]"}
{"molecule": "CCCN(CCC)C(=O)Cn1c(=O)n(CCC(=O)NCCc2ccccc2)c(=O)c2ccccc21", "Potency": "inconclusive: 11.2 µM [inhibitor, single point]"}
{"molecule": "O=C(Nc1ccc2c(c1)OCO2)C1CC(c2c(F)cccc2Cl)=NO1", "note": "(stereo not given)", "Potency": "inconclusive: 11.6 µM [activator, partial curve]"}
{"molecule": "N#CC(C(=O)OCc1ccccc1)c1nc2ccccc2nc1N1CCOCC1", "note": "(stereo not given)", "Potency": "inconclusive: 20.6 µM [inhibitor, partial curve, poor fit]"}
{"molecule": "O=S(=O)(N1CCOCC1)N1CCCN(S(=O)(=O)N2CCOCC2)CC1", "Potency": "inactive"}
{"molecule": "N=C1S/C(=C\\c2cn[nH]c2-c2ccc(F)cc2)C(=O)N1c1ccccc1F", "Potency": "inconclusive: 4.61 µM [inhibitor, full curve, poor fit]"}
{"molecule": "CCOc1ccc(-n2c(=O)c3c(C)c(C)sc3n(CC(=O)NCc3ccco3)c2=O)cc1", "Potency": "inconclusive: 2.91 µM [activator, partial curve, poor fit]"}
{"molecule": "COc1ccccc1NS(=O)(=O)c1cc(C(=O)NCCC(C)C)ccc1F", "Potency": "inconclusive: 2.82 µM [inhibitor, full curve, poor fit]"}
{"molecule": "CC(=O)N(C(C)=O)c1nc(-c2ccccc2)cn1/N=C/c1ccccc1", "Potency": "inconclusive: 20 µM [inhibitor, single point]"}
{"molecule": "O=C(O)CCC(=O)CCC(=O)c1ccc(Cl)cc1", "Potency": "inactive"}
{"molecule": "O=C(/C=C/c1ccccc1)CCN1CCCCC1", "Potency": "inconclusive: 17.8 µM [inhibitor, partial curve, poor fit]"}
{"molecule": "CCOC(=O)/C(C#N)=C/c1c(N2CCN(c3ccc(OC)cc3)CC2)nc2c(C)cccn2c1=O", "Potency": "inconclusive: 35.5 µM [inhibitor, single point]"}
{"molecule": "Cc1ccc(N2CC(C(=O)OCc3ccccc3)CC2=O)cc1", "note": "(stereo not given)", "Potency": "inconclusive: 35.5 µM [activator, partial curve, poor fit]"}
{"molecule": "O=C(c1ccco1)N1CCN(C(=O)C(Cc2ccccc2)NS(=O)(=O)c2cccs2)CC1", "note": "(stereo not given)", "Potency": "inconclusive: 18.3 µM [inhibitor, partial curve, poor fit]"}
{"molecule": "Cc1ccccc1C(=O)NCc1nnc(SCC(=O)N2c3ccccc3Sc3ccccc32)n1C", "Potency": "inconclusive: 29.1 µM [inhibitor, single point]"}
{"molecule": "O=C1CCCN2N=C(SCC(=O)Nc3ccc(Cl)cc3)SC2=N1", "Potency": "inconclusive: 3.16 µM [inhibitor, partial curve, poor fit]"}
{"molecule": "Cc1ccc(NC(=O)Nc2nc(-c3ccc(C)s3)cs2)cc1", "Potency": "inconclusive: 1.26 µM [inhibitor, full curve]"}
{"molecule": "CCc1c(C)c(C#N)c2[nH]c3ccccc3n2c1=S", "Potency": "inconclusive: 10 µM [inhibitor, partial curve]"}
{"molecule": "CCn1cnc2cc(NCc3ccc(Cl)cc3)ccc21", "Potency": "inconclusive: 1.12 µM [activator, partial curve, poor fit]"}
{"molecule": "NS(=O)(=O)c1ccc(CCNC(=O)CSCc2ccccc2)cc1", "Potency": "inconclusive: 4.11 µM [inhibitor, single point]"}
{"molecule": "Cc1cc(NC(=O)CSc2ccc3nnc(-c4ccccc4)n3n2)no1", "Potency": "inconclusive: 6.51 µM [activator, single point]"}
{"molecule": "COc1ccc(NC(=O)c2ccc(COc3ccccc3Br)o2)cc1OC", "Potency": "inconclusive: 2.24 µM [inhibitor, full curve, poor fit]"}
{"molecule": "COc1ccc(C(C(=O)NC2CCCCC2)N(C(=O)c2cccs2)c2ccc3c(c2)OCO3)cc1", "note": "(stereo not given)", "Potency": "inconclusive: 4.61 µM [inhibitor, full curve]"}
{"molecule": "COc1ccc(NCc2cc3cc4c(cc3n(CC(=O)Nc3ccc(F)cc3)c2=O)OCCO4)cc1", "Potency": "inactive"}
{"molecule": "COc1cccc(C(=O)N(Cc2cccnc2)c2nc3c(OC)ccc(C)c3s2)c1OC", "Potency": "inconclusive: 3.16 µM [inhibitor, full curve, poor fit]"}
{"molecule": "Cc1ccc(C(=O)NNC(=S)NC(=O)c2ccc(Cl)cc2Cl)cc1", "Potency": "inconclusive: 29.1 µM [inhibitor, single point]"}
